In patent US20090099167A1, “Organic compounds” (Novartis Institutes for Biomedical Research, priority 2004, published 2009) one finds IC50 data, which are given here for one molecule.

Amino acid sequences for entries named in this document (tags omitted). Residues count along the entry.
UniProt P35968, 20-1356 limits assumed: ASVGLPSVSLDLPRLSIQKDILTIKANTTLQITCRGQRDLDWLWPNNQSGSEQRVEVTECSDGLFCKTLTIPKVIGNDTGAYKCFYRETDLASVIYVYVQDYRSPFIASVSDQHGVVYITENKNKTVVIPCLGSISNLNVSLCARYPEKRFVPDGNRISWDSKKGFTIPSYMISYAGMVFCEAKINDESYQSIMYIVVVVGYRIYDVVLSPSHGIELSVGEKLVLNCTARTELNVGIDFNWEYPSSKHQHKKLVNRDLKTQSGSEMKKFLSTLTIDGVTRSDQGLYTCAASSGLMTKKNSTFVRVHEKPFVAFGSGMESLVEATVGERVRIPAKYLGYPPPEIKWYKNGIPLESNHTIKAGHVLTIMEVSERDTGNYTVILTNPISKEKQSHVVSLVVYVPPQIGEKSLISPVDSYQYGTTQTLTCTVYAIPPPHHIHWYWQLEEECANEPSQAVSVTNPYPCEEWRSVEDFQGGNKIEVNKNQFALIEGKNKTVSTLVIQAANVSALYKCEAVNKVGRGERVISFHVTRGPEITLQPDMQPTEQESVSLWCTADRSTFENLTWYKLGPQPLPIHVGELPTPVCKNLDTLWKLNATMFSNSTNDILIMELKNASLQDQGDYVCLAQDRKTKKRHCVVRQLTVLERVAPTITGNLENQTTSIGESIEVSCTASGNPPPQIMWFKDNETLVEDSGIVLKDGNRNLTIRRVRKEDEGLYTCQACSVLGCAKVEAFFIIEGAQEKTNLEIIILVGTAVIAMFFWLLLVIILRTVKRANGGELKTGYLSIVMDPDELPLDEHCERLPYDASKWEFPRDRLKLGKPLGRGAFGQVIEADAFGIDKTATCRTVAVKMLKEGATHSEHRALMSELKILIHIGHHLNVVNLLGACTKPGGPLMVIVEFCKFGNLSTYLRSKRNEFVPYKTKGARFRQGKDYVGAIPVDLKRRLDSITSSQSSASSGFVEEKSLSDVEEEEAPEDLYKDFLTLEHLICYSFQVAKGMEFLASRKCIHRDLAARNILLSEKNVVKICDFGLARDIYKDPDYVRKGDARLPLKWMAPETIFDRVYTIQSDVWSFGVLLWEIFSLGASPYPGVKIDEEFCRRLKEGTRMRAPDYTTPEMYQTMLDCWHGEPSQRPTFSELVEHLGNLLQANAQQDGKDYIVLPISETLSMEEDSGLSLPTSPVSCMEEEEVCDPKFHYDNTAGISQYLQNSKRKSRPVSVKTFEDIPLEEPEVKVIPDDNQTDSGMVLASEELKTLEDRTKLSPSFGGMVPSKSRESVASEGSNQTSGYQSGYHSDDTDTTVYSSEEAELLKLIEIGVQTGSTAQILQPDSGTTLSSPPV

The assay concerns the target human VEGF-R2 receptor (KDR) (Homo sapiens, UniProt P35968). Nature of the assay: VEGF-induced KDR autophosphorylation in transfected CHO cells, sandwich ELISA. As to conditions: read-out: KDR, activity (IC50 for kinase inhibition); Table 4.

SMILES strings stand for the structures. The match of structure and compound is tentative.

As a reminder, the IC50 is the concentration that gives 50% inhibition. For `Cc1nn2c(N)c(-c3cccc(O)c3)cnc2c1-c1ccc(N2CCN(C)CC2)cc1` [Example 61a, 3-{7-Amino-2-methyl-3-[4-(4-methyl-piperazin-1-yl)phenyl]-pyrazolo[1,5-a]pyrimidin-6-yl}-phenol], the IC50 is below 10 µM.
